This is one part of the list.
Compound: Cc1cc(ccc1-c1ccccc1)C(=O)N1CCCN(CC1)C(=O)CCl [compound 10]
Test: probe-labelled cysteine peptide fold change vs DMSO (competition) (log2 fold change); higher = less target engagement (more negative = stronger competition)
Conditions: THP-1, incubation time: 4 h
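Also: competitive profiling in live THP-1 cells: cysteine peptides tagged with an iodoacetamide desthiobiotin (IA-DTB) probe, intensity after compound treatment relative to DMSO-treated cells.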

Protein sequences, listed by entry. Tags and fused reporters are not part of them. Lines headed by an entry give the natural chain unless they say otherwise; changes in a name come on top.
UniProt P17844: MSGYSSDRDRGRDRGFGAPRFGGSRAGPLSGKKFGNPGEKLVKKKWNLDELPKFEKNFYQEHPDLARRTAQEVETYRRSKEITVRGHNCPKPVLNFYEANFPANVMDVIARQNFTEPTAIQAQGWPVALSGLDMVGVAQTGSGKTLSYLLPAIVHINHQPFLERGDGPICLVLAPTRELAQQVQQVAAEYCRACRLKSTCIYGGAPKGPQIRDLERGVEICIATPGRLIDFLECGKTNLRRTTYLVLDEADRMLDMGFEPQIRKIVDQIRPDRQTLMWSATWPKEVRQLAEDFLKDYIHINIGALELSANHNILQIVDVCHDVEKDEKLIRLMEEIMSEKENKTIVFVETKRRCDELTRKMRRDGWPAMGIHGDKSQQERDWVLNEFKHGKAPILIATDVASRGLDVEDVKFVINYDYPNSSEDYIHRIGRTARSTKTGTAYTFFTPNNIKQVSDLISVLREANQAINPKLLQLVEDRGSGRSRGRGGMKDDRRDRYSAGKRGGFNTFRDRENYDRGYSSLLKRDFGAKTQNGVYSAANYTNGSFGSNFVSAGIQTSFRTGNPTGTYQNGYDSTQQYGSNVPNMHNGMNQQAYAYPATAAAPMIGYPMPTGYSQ
UniProt Q9H4E7, whole entry, looked up: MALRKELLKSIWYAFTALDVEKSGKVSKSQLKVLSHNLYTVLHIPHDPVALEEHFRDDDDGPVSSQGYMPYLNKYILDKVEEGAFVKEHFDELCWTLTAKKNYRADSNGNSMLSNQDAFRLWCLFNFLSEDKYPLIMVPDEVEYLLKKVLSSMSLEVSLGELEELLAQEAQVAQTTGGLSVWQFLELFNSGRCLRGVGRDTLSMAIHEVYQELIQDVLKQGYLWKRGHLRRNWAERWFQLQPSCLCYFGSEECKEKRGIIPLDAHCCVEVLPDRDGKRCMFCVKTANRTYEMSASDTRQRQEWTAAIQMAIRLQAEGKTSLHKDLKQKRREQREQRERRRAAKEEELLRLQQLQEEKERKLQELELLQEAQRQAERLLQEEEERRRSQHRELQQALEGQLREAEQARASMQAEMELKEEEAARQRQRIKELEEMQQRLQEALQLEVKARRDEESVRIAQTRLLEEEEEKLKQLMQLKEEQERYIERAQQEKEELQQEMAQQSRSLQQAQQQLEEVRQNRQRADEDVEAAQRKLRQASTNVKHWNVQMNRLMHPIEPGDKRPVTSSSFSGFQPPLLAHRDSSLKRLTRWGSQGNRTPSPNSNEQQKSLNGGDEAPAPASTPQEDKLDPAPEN
UniProt Q13574: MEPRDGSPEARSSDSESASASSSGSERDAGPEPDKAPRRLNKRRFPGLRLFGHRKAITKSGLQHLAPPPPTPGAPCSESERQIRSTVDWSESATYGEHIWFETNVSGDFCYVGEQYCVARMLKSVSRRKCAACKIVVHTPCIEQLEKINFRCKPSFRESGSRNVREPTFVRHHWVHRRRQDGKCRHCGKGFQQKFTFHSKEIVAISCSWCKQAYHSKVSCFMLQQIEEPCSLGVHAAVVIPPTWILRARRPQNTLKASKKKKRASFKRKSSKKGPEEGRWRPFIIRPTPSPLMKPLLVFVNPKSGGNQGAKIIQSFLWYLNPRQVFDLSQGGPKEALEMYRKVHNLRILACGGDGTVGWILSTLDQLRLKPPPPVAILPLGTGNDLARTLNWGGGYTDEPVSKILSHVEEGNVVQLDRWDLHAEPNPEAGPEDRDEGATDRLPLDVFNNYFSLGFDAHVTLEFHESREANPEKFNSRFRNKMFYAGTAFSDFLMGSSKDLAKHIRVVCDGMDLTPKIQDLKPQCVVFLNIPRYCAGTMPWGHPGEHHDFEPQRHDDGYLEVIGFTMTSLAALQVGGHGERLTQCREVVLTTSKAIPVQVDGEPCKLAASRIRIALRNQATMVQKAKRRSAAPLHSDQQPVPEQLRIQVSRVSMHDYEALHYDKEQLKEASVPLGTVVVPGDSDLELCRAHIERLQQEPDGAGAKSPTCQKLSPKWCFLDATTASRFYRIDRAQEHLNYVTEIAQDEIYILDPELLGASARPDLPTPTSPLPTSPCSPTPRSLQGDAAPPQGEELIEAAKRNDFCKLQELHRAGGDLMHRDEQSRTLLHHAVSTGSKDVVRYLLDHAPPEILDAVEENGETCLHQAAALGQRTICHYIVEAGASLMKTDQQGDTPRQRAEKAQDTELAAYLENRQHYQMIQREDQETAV
UniProt Q7Z401: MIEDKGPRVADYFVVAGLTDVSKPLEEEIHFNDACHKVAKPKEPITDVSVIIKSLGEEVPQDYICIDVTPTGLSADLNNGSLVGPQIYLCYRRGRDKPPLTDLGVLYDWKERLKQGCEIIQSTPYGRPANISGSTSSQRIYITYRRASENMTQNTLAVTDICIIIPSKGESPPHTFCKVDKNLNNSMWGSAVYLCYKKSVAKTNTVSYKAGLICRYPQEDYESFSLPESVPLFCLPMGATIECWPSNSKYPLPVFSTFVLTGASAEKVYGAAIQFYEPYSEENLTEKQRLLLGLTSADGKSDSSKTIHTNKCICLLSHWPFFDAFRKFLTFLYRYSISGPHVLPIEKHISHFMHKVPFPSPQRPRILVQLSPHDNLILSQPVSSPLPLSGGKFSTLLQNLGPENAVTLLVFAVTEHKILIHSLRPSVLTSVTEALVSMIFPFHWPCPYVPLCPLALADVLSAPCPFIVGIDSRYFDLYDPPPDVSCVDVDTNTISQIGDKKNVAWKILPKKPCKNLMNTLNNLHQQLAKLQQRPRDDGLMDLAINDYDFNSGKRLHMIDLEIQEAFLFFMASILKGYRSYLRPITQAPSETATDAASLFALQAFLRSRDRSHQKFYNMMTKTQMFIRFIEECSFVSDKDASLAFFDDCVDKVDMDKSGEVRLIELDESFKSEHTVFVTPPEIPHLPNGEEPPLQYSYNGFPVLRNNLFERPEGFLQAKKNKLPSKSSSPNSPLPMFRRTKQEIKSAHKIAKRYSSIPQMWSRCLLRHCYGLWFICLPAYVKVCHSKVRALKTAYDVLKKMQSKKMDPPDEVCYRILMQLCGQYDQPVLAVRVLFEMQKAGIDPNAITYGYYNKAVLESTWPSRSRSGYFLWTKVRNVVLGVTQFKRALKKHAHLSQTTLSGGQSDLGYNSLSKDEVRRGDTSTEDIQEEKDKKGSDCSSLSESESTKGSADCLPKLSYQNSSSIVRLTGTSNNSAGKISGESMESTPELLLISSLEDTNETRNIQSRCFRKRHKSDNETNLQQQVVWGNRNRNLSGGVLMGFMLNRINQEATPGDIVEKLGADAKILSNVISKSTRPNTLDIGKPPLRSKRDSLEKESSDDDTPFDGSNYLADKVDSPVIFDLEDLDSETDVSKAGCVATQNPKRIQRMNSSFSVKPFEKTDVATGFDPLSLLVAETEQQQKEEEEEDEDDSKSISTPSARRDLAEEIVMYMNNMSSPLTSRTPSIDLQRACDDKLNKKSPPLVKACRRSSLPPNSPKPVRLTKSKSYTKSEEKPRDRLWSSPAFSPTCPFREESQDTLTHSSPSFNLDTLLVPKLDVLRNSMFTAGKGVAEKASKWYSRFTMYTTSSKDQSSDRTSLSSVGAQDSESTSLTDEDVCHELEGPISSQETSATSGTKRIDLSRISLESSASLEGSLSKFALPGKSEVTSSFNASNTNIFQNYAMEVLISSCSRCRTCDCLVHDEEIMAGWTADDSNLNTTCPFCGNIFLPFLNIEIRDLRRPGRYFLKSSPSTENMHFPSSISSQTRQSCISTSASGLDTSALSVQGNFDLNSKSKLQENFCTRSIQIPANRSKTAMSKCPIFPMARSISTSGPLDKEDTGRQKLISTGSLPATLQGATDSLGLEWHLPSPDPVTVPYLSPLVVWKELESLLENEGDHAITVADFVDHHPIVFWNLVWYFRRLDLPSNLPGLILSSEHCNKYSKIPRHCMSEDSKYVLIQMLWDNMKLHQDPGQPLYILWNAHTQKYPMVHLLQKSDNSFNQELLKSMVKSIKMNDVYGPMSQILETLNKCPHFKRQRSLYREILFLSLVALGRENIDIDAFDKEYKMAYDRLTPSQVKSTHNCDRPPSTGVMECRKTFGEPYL
UniProt O00148, whole entry, looked up: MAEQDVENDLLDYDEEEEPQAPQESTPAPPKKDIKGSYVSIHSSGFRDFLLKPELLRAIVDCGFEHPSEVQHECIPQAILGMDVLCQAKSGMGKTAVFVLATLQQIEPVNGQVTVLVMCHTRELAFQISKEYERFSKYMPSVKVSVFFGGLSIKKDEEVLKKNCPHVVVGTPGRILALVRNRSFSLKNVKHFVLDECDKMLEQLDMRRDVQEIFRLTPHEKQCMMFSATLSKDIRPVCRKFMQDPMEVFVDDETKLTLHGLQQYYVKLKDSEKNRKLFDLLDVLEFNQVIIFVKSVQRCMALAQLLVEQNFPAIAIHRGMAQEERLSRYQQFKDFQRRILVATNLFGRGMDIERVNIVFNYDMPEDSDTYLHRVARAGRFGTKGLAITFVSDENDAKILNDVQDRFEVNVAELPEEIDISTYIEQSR
UniProt A2RUS2: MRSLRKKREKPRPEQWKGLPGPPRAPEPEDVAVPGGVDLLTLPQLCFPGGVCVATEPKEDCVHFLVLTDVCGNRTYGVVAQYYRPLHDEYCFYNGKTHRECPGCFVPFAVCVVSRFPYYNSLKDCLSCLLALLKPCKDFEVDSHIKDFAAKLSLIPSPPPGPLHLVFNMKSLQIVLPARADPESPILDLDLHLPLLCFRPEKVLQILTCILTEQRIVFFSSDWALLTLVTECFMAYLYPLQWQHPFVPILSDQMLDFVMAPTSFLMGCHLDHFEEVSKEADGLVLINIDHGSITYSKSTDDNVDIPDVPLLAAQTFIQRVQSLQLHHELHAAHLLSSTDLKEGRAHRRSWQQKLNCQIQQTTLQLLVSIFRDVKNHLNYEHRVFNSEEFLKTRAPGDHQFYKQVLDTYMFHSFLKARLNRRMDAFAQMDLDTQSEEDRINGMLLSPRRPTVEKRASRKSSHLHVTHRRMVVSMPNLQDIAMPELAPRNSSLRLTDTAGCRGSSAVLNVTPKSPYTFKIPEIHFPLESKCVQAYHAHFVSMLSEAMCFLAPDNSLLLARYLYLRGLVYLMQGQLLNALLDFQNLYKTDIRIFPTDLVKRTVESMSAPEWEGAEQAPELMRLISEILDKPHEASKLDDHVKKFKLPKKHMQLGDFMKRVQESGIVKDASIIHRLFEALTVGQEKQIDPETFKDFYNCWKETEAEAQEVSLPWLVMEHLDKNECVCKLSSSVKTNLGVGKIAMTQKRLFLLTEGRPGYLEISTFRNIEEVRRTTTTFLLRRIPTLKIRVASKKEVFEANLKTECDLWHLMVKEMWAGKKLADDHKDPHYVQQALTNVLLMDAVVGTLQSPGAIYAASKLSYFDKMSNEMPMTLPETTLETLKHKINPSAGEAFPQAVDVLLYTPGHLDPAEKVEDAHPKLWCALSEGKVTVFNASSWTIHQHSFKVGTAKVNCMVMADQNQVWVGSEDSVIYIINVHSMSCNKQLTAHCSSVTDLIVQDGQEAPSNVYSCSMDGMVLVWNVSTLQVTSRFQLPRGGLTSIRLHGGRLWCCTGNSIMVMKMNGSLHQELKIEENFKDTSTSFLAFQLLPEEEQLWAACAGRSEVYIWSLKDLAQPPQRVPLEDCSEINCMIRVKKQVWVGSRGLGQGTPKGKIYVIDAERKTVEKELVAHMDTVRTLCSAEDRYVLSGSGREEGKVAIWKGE
UniProt O00571: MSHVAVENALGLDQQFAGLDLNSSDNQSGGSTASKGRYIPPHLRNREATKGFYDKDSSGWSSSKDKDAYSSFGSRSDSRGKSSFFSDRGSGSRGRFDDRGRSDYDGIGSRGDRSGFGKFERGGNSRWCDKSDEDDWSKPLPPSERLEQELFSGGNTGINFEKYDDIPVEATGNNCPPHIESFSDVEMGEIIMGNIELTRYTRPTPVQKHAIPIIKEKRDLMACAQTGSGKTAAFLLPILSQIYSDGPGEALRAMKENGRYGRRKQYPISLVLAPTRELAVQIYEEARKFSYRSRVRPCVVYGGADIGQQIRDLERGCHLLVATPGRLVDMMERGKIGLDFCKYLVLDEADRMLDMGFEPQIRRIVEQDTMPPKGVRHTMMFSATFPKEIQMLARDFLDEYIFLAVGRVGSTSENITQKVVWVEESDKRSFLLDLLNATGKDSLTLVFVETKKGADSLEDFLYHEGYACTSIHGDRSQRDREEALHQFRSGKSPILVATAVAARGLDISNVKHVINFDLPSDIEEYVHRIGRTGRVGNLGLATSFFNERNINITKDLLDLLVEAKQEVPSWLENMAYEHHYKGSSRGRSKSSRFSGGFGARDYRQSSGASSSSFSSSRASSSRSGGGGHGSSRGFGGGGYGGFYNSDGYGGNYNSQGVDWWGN
UniProt Q6PKH6: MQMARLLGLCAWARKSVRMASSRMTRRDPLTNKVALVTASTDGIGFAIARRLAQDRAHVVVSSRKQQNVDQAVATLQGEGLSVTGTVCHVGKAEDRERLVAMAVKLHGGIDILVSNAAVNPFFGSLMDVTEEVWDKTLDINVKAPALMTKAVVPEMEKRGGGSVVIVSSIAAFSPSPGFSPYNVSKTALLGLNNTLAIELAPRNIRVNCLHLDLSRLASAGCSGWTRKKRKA

| Target | probe-labelled cysteine peptide fold change (10 µM) | probe-labelled cysteine peptide fold change (50 µM) |
| --- | --- | --- |
| DDX5_P17844_200_STCIYGGAPK (UniProt P17844) | -0.0442 | -0.0153 |
| DEF6_Q9H4E7_267_RGIIPLDAHCCVEVLPDRDGK (UniProt Q9H4E7) | 0.247 | -0.0747 |
| DDB2_Q92466_322_VYSASQWDCPLGLIPHPHR (UniProt Q92466) | 0.00758 | -0.144 |
| DGKZ_Q13574_1063_TICHYIVEAGASLMK (UniProt Q13574) | 0.112 | -0.107 |
| DDX60L_Q5H9U9_986_HDDVYFDHFHPCAALTTDIIEK (UniProt Q5H9U9) | 0.097 | 0.0401 |
| DDX46_Q7L014_377_SWVQCGISMK (UniProt Q7L014) | -0.00718 | -0.155 |
| DDX21_Q9NR30_378_KDSEDNPQTLLFSATCPHWVFNVAK (UniProt Q9NR30) | -0.046 | -0.143 |
| DDX19A_Q9NUU7_392_VLVTTNVCAR (UniProt Q9NUU7) | -0.00998 | -0.0703 |
| DENR_O43583_44_VLYCGVCSLPTEYCEYMPDVAK (UniProt O43583) | -0.12 | -0.0859 |
| DDX55_Q8NHQ9_161_AEGLDLASCVR (UniProt Q8NHQ9) | 0.187 | 0.31 |
| DENND1C_Q8IV53_781_EEPGALNSPATPTSNCQK (UniProt Q8IV53) | -0.276 | -0.159 |
| DDX17_Q92841_447_RDGWPAMCIHGDK (UniProt Q92841) | -0.037 | -0.109 |
| DDX28_Q9NUL7_360_LHCIMPHVK (UniProt Q9NUL7) | -0.266 | -0.556 |
| DENND4A_Q7Z401_648_DASLAFFDDCVDK (UniProt Q7Z401) | -0.0249 | 0.317 |
| DDX59_Q5T1V6_208_QQLGILVQGQEVTRPIIDFEHCSLPEVLNHNLK (UniProt Q5T1V6) | 0.105 | 0.0483 |
| DENND4A_Q7Z401_1843_STHNCDRPPSTGVMECR (UniProt Q7Z401) | 0.103 | -0.573 |
| DEF6_Q9H4E7_266_GIIPLDAHCCVEVLPDRDGKR (UniProt Q9H4E7) | 0.106 | -0.227 |
| DDX39A_O00148_164_NCPHVVVGTPGR (UniProt O00148) | 0.0495 | 0.179 |
| DDX23_Q9BUQ8_677_GCDVLAK (UniProt Q9BUQ8) | -0.169 | 0.00824 |

| Target | probe-labelled cysteine peptide fold change (10 µM) | probe-labelled cysteine peptide fold change (50 µM) |
| --- | --- | --- |
| DENND3_A2RUS2_61+71_EDCVHFLVLTDVCGNR (UniProt A2RUS2) | -0.0566 | 0.0022 |
| DELE1_Q14154_286_AQYNAGLCHEHGR (UniProt Q14154) | 0.308 | 0.837 |
| DDB1_Q16531_903_ELRTECNHYNNIMALYLK (UniProt Q16531) | -0.179 | -0.592 |
| DDX3X_O00571_468_KGADSLEDFLYHEGYACTSIHGDR (UniProt O00571) | 0.0737 | -0.117 |
| DDX5_P17844_234_LIDFLECGK (UniProt P17844) | 0.0124 | -0.0963 |
| DDX1_Q92499_542_GHQFSCVCLHGDR (UniProt Q92499) | 0.0323 | -0.0884 |
| DDX3X_O00571_317_GCHLLVATPGR (UniProt O00571) | 0.139 | -0.0375 |
| DHRS4L2_Q6PKH6_86_KQQNVDQAVATLQGEGLSVTGTVCHVGK (UniProt Q6PKH6) | 0.254 | -0.306 |
| DENND3_A2RUS2_1094_DTSTSFLAFQLLPEEEQLWAACAGR (UniProt A2RUS2) | 1.07 | 1.16 |
| DDX17_Q92841_199_GGDVCPKPVFAFHHANFPQYVMDVLMDQHFTEPTPIQCQGFPLALSGR (UniProt Q92841) | 0.000804 | -0.478 |
| DDX27_Q96GQ7_261_DICACAATGTGK (UniProt Q96GQ7) | 0.0612 | -0.14 |
| DDX31_Q9H8H2_660_MEDILCVLTR (UniProt Q9H8H2) | -0.245 | 0.115 |
| DDX6_P26196_341_LQINQSIIFCNSSQR (UniProt P26196) | 0.0751 | 0.421 |
| DGKZ_Q13574_330_IVVHTPCIEQLEK (UniProt Q13574) | 0.234 | -0.0271 |
| DDX3X_O00571_298_VRPCVVYGGADIGQQIR (UniProt O00571) | 0.0509 | 0.101 |
| DDX50_Q9BQ39_417_QNAQCLHGDIAQSQR (UniProt Q9BQ39) | -0.0486 | -0.00294 |
| DDX60_Q8IY21_1591_VAISPFVCLSGNFDDDLLRLETPNHVTLGTIGVNR (UniProt Q8IY21) | -0.0822 | -0.281 |
| DDX39A_O00148_164_KNCPHVVVGTPGR (UniProt O00148) | -0.0734 | -0.265 |

From the supplement of paper PMC12067093, “Discovery and optimisation of a covalent ligand for TRIM25 and its application to targeted protein ubiquitination” (Chemical Science, 2025)
